The supplement of paper PMC10849652
Some of the results follow.

Protein sequences, listed by entry. Tags and fused reporters are not part of them. Lines headed by an entry give the natural chain unless they say otherwise; changes in a name come on top.
UniProt Q9Y6M7: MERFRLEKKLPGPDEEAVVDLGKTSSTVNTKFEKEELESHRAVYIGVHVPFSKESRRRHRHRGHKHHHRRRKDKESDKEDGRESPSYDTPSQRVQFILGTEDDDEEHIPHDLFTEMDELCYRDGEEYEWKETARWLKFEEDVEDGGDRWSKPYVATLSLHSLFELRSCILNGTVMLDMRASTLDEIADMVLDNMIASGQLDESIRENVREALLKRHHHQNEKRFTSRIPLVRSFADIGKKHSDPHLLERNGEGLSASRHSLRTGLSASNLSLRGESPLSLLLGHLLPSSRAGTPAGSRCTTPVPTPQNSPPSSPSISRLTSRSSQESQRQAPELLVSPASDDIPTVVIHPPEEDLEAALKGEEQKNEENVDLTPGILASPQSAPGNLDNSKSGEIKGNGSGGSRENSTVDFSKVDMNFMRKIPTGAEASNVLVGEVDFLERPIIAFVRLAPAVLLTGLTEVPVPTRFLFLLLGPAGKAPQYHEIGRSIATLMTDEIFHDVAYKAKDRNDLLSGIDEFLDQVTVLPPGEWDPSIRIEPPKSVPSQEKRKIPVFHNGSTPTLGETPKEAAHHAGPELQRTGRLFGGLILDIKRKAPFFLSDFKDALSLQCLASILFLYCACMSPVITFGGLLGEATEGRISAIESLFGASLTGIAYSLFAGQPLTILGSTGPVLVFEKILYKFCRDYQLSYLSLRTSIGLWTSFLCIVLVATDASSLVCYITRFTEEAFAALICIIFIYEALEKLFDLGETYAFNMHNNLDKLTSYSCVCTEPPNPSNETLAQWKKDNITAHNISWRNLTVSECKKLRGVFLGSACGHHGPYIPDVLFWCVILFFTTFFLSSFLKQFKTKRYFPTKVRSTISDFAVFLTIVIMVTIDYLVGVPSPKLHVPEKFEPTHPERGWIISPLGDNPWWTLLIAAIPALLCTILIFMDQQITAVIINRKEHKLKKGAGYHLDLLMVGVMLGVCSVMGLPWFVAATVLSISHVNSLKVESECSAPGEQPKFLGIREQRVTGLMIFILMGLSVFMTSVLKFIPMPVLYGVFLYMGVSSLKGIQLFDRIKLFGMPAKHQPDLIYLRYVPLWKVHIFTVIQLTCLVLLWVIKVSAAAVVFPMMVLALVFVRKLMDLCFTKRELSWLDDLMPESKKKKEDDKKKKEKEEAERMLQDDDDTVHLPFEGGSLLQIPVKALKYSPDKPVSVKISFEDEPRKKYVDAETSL
UniProt O14745: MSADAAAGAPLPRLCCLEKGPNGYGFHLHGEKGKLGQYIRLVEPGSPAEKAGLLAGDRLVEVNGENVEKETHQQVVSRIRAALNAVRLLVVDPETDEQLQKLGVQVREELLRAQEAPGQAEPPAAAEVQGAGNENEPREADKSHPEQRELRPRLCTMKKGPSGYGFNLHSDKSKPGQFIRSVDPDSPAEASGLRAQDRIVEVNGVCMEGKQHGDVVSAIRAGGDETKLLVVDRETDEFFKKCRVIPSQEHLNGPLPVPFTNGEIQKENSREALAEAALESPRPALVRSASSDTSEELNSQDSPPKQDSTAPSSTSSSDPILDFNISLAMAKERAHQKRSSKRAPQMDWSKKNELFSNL
UniProt Q70HW3: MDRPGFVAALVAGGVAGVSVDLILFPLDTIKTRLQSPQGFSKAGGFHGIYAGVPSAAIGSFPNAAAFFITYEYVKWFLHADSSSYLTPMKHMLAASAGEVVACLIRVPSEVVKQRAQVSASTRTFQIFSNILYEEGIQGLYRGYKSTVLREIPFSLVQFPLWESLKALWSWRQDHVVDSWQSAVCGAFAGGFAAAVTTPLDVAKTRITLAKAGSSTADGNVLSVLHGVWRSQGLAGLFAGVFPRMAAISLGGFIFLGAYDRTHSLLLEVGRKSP
UniProt O14975, whole entry, looked up: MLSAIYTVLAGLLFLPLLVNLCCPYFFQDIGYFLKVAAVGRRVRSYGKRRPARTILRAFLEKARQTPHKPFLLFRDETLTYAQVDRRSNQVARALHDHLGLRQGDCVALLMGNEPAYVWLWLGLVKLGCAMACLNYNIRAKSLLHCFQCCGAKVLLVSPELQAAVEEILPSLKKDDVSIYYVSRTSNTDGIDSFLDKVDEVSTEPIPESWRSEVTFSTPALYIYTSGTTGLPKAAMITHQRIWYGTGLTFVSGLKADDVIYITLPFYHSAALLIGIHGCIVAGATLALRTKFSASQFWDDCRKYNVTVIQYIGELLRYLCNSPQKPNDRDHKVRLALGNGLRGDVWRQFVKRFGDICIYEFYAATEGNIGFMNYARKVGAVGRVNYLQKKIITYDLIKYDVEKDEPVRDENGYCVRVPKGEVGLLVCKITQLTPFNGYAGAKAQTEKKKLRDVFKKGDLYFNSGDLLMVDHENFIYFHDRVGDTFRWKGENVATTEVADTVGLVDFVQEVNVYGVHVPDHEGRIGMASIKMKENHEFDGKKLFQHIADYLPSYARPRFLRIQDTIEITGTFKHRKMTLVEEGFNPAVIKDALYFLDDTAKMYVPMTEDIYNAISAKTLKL
UniProt Q8N357: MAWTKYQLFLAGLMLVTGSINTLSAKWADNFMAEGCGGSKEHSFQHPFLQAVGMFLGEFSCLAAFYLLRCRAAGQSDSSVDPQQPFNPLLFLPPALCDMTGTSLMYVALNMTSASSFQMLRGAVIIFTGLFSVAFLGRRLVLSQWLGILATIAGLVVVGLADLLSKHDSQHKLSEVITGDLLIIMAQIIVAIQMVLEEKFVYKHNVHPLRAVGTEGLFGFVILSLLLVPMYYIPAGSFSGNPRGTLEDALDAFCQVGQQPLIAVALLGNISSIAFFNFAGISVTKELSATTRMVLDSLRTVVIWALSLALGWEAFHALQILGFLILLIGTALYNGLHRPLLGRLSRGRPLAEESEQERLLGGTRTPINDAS
UniProt L0R6Q1: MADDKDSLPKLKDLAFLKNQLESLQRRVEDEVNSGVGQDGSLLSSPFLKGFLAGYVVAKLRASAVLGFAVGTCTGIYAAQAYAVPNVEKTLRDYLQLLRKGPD
UniProt P48029: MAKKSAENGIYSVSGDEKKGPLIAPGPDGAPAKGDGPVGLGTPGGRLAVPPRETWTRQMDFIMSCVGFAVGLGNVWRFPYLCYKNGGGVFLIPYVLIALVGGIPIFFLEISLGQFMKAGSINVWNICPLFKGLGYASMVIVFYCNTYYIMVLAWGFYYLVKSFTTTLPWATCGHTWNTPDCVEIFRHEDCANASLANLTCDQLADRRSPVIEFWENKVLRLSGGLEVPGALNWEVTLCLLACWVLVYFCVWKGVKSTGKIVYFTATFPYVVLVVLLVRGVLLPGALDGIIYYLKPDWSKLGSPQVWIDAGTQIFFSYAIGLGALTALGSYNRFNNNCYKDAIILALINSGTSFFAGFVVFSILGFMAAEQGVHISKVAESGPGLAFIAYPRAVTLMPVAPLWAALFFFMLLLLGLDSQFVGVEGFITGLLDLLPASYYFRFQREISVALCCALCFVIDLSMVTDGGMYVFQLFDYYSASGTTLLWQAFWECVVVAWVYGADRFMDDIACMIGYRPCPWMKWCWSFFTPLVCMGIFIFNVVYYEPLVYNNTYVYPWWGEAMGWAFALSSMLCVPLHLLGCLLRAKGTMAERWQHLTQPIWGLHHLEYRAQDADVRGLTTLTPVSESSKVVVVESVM
UniProt Q9H2D1: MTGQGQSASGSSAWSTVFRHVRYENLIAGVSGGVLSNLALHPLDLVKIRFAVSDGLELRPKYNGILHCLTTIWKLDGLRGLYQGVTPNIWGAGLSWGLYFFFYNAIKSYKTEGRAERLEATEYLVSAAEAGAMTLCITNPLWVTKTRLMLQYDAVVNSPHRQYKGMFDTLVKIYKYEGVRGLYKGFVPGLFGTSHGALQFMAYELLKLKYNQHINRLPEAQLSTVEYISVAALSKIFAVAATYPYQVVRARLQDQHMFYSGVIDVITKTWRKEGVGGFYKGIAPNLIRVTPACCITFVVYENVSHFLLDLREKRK
UniProt Q9Y289: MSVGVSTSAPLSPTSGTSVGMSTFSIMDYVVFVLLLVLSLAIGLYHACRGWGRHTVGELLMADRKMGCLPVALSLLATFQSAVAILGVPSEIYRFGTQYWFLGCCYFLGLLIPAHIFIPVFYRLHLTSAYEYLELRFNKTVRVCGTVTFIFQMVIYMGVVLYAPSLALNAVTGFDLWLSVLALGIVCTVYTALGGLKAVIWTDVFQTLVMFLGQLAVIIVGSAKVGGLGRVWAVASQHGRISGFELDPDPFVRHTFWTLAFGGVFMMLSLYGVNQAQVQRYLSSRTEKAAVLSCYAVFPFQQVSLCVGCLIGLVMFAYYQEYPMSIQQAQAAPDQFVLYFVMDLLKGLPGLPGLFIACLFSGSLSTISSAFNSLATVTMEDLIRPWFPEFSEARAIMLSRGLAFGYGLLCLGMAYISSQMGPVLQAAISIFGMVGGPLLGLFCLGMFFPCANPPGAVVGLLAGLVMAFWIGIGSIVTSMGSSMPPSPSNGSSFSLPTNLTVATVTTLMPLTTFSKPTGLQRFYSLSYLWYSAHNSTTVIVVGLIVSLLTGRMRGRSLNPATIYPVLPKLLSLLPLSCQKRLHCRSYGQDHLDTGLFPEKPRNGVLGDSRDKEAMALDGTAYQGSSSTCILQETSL
UniProt Q9BRY0: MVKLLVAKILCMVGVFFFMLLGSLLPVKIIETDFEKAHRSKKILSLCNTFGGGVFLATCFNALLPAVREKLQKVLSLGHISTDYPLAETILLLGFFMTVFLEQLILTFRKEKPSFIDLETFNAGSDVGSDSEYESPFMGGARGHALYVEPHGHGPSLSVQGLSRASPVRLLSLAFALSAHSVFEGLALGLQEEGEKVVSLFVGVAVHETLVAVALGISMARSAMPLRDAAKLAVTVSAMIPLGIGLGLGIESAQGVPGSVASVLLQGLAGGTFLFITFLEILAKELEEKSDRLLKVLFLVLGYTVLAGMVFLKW
UniProt Q9UBX3: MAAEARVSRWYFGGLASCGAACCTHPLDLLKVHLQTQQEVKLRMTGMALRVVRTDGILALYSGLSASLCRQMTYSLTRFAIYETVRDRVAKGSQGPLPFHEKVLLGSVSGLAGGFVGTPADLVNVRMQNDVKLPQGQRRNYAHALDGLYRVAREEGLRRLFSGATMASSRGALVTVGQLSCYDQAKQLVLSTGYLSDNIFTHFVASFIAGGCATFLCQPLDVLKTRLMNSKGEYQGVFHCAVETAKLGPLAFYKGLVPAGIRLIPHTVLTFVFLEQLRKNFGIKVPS
UniProt Q13485: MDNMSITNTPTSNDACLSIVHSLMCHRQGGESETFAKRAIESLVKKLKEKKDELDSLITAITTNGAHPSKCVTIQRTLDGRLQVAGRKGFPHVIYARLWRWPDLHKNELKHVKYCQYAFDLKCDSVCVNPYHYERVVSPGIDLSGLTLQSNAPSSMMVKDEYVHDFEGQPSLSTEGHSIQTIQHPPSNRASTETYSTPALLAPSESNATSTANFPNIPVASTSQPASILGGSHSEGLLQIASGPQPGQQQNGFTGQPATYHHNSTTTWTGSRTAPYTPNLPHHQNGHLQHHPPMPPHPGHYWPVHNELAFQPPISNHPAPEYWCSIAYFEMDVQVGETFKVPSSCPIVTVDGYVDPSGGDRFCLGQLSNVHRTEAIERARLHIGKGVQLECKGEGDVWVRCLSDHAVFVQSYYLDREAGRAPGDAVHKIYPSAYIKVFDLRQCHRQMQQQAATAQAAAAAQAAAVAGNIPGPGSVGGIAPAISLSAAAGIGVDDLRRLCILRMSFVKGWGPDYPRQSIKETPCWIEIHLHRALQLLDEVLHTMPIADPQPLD
UniProt Q6XR72: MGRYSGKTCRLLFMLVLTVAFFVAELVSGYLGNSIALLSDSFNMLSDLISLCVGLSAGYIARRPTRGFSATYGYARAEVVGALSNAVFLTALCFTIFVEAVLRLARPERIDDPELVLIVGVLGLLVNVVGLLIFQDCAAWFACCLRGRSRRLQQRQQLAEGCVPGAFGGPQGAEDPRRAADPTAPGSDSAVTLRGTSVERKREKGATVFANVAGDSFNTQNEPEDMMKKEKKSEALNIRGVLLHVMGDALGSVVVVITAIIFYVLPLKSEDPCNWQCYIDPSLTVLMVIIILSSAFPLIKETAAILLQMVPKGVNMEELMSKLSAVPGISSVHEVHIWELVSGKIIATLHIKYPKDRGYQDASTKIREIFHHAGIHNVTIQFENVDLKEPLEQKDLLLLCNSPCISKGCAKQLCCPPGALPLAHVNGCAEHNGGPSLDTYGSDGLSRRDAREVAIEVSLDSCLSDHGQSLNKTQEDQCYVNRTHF

Key:
Experiment in all cases: log2 fold change, soluble protein after heating vs DMSO (PISA); higher = thermal stabilisation; K562 lysate, 10 uM; active = over 0.2 and 3.5 SD of the protein, either way, in both replicates (recomputed)
vemurafenib = compound: CCCS(=O)(=O)Nc1ccc(F)c(C(=O)c2c[nH]c3ncc(-c4ccc(Cl)cc4)cc23)c1F [vemurafenib]
Summary of the method: (§1)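 K562 pellets were dounce-homogenised in PBS pH 7.4 with 1 mM MgCl2, and the crude extract at 1 mg/mL protein was treated with 10 μM compound for 30 min. Aliquots were heated for 3 min across 48°C-58°C, pooled, and brought to 0.5% NP-40 at 4°C; soluble protein was the supernatant after 21,000xg for 90 min. Soluble protein was quantified by TMTpro 16plex LC-MS/MS with channel sums equalised, and reported as log2 fold change in thermal stability against DMSO controls, with values from duplicates.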

[1] = compound: CCCS(=O)(=O)Nc1ccc(F)c(C(=O)c2c[nH]c3ncc(Cl)cc23)c1F
Summary of the method: as §1

barasertib = compound: CCN(CCCOc1ccc2c(Nc3cc(CC(=O)Nc4cccc(F)c4)[nH]n3)ncnc2c1)CCOP(=O)(O)O [barasertib]
Summary of the method: as §1

[2] = compound: CC[C@@H]1C(=O)N(C)c2cnc(Nc3ccc(C(=O)NC4CCN(C)CC4)cc3OC)nc2N1C1CCCC1
Summary of the method: as §1

volasertib = compound: CC[C@@H]1C(=O)N(C)c2cnc(Nc3ccc(C(=O)N[C@H]4CC[C@H](N5CCN(CC6CC6)CC5)CC4)cc3OC)nc2N1C(C)C [volasertib]
Summary of the method: as §1

[3] = compound: CCn1c(C(=O)N(C2CC2)C2CC2)cc2c3c(ncn3C)c(Nc3cc(C)n(C)n3)nc21
Summary of the method: as §1

[4] = compound: CCn1cc(-c2ccnc3[nH]c(-c4cccc(CN(C)C)c4)cc23)c(-c2ccc(NC(=O)N(C)C)cc2)n1
Summary of the method: as §1

[5] = compound: CN1CCC(CNc2ccc3ncc(-c4cccc(OC(F)(F)F)c4)n3n2)CC1
Summary of the method: as §1

saracatinib = compound: CN1CCN(CCOc2cc(OC3CCOCC3)c3c(Nc4c(Cl)ccc5c4OCO5)ncnc3c2)CC1 [saracatinib]
Summary of the method: as §1

sotrastaurin = compound: CN1CCN(c2nc(C3=C(c4c[nH]c5ccccc45)C(=O)NC3=O)c3ccccc3n2)CC1 [sotrastaurin]
Summary of the method: as §1

alvocidib = compound: CN1CC[C@H](c2c(O)cc(O)c3c(=O)cc(-c4ccccc4Cl)oc23)[C@H](O)C1 [alvocidib]
Summary of the method: as §1

Tubastatin A = compound: CN1CCc2c(c3ccccc3n2Cc2ccc(C(=O)NO)cc2)C1 [Tubastatin A]
Summary of the method: as §1

[6] = compound: CNC(=O)C1=CC=CC=C1NC2=NC(=NC=C2Cl)NC3=C(C=C(C=C3)N4CCOCC4)OC
Summary of the method: as §1

defactinib = compound: CNC(=O)c1ccc(Nc2ncc(C(F)(F)F)c(NCc3nccnc3N(C)S(C)(=O)=O)n2)cc1 [defactinib]
Summary of the method: as §1

[7] = compound: CNc1nc(-c2ccc3c(N)n[nH]c3c2)cc(N2C[C@@H](C(=O)NC3CCCCC3)CC[C@H]2C)n1
Summary of the method: as §1

encorafenib = compound: COC(=O)N[C@@H](C)CNc1nccc(-c2cn(C(C)C)nc2-c2cc(Cl)cc(NS(C)(=O)=O)c2F)n1 [encorafenib]
Summary of the method: as §1

[8] = compound: COC(=O)[C@H](CCSC)NC(=O)C1=C(C=C(C=C1)NC[C@H](CS)N)C2=CC=CC=C2
Summary of the method: as §1

alisertib = compound: COc1cc(Nc2ncc3c(n2)-c2ccc(Cl)cc2C(c2c(F)cccc2OC)=NC3)ccc1C(=O)O [alisertib]
Summary of the method: as §1

[9] = compound: COc1cc2nc(-c3cc(F)ccc3O)nc(N[C@@H]3CNC[C@H]3C(C)(C)O)c2cc1OC
Summary of the method: as §1

gefitinib = compound: COc1cc2ncnc(Nc3ccc(F)c(Cl)c3)c2cc1OCCCN1CCOCC1 [gefitinib]
Summary of the method: as §1

Measured: log2 fold change

SLC4A7 isoform 7 (UniProt Q9Y6M7)
inactive: vemurafenib -0.016 | [1] 0.066 | barasertib 0.347 | [2] 0.031 | volasertib 0.01 | [3] 0.006 | [4] 0.133 | [5] -0.095 | saracatinib -0.025 | sotrastaurin -0.018 | alvocidib 0.053 | Tubastatin A 0.008 | [6] -0.011 | defactinib -0.013 | [7] -0.03 | encorafenib 0.026 | [8] -0.051 | alisertib 0.01 | [9] -0.041 | gefitinib -0.006

SLC9A3R1 (UniProt O14745)
inactive: vemurafenib 0.016 | [1] 0.005 | barasertib -0.007 | [2] 0.026 | volasertib 0.029 | [3] -0.006 | [4] -0.016 | [5] 0.063 | saracatinib 0.022 | sotrastaurin -0.005 | alvocidib -0.003 | Tubastatin A 0.046 | [6] -0.003 | defactinib -0.012 | [7] 0.046 | encorafenib -0.006 | [8] -0.052 | alisertib -0.016 | [9] 0.028 | gefitinib -0.01

SLC25A26 (UniProt Q70HW3)
inactive: vemurafenib 0.081 | [1] -0.084 | barasertib 0.067 | [2] 0.092 | volasertib 0.004 | [3] -0.057 | [4] -0.135 | [5] 0.077 | saracatinib 0.026 | sotrastaurin 0.144 | alvocidib -0.083 | Tubastatin A 0.041 | [6] 0.114 | defactinib 0.012 | [7] -0.036 | encorafenib 0.048 | [8] -0.102 | alisertib 0.027 | [9] -0.033 | gefitinib 0.124

SLC7A2 isoform 3 (UniProt P52569)
inactive: vemurafenib -0.303 | [1] 0.009 | barasertib 0.049 | [2] 0.187 | volasertib 0.027 | [3] -0.115 | [4] -0.037 | [5] 0.23 | saracatinib 0.022 | sotrastaurin 0.037 | alvocidib -0.136 | Tubastatin A 0.051 | [6] -0.013 | defactinib -0.072 | [7] 0.268 | encorafenib 0.028 | [8] -0.109 | alisertib 0.01 | [9] 0.031 | gefitinib -0.015

SLC27A2 (UniProt O14975)
inactive: vemurafenib 0.089 | [1] 0.009 | barasertib 0.029 | [2] -0.033 | volasertib -0.084 | [3] -0.063 | [4] -0.024 | [5] 0.082 | saracatinib -0.021 | sotrastaurin 0.159 | alvocidib 0.005 | Tubastatin A -0.009 | [6] 0.216 | defactinib -0.044 | [7] 0.172 | encorafenib 0.063 | [8] 0.019 | alisertib 0.002 | [9] 0.017 | gefitinib -0.089

SLC35F6 (UniProt Q8N357)
inactive: vemurafenib -0.034 | [1] 0.027 | barasertib 0.006 | [2] -0.036 | volasertib -0.001 | [3] -0.018 | [4] 0 | [5] -0.082 | saracatinib -0.008 | sotrastaurin 0.158 | alvocidib -0.05 | Tubastatin A 0.115 | [6] 0.022 | defactinib 0.014 | [7] 0.03 | encorafenib 0.064 | [8] -0.05 | alisertib 0.052 | [9] -0.001 | gefitinib 0.011

SMAD2 (UniProt Q15796)
inactive: vemurafenib -0.027 | [1] 0.074 | barasertib 0.03 | [2] -0.031 | volasertib -0.006 | [3] -0.027 | [4] 0.025 | [5] -0.003 | saracatinib 0.017 | sotrastaurin -0.002 | alvocidib -0.058 | Tubastatin A 0.009 | [6] 0.167 | defactinib 0.01 | [7] 0.038 | encorafenib -0.01 | [8] 0.03 | alisertib -0.069 | [9] 0.006 | gefitinib 0.016

SLC35A4 (UniProt L0R6Q1)
inactive: vemurafenib 0.013 | [1] -0.021 | barasertib 0.123 | [2] 0.084 | volasertib 0.061 | [3] 0.037 | [4] -0.225 | [5] 0.027 | saracatinib -0.012 | sotrastaurin -0.003 | alvocidib -0.024 | Tubastatin A 0.082 | [6] 0.055 | defactinib 0.124 | [7] 0.06 | encorafenib 0.037 | [8] 0.022 | alisertib 0.042 | [9] -0.054 | gefitinib -0.147

SLC6A8 (UniProt P48029)
inactive: vemurafenib 0.037 | [1] 0.04 | barasertib -0.008 | [2] 0.026 | volasertib 0.045 | [3] -0.065 | [4] -0.188 | [5] 0.088 | saracatinib -0.003 | sotrastaurin -0.078 | alvocidib -0.115 | Tubastatin A -0.02 | [6] 0.033 | defactinib 0.004 | [7] 0.03 | encorafenib 0.058 | [8] -0.027 | alisertib 0.012 | [9] -0.012 | gefitinib -0.018

SLC25A32 (UniProt Q9H2D1)
inactive: vemurafenib 0.053 | [1] 0.01 | barasertib -0.012 | [2] -0.013 | volasertib 0.002 | [3] -0.045 | [4] -0.129 | [5] 0.054 | saracatinib 0.029 | sotrastaurin 0.007 | alvocidib -0.05 | Tubastatin A 0.037 | [6] -0.01 | defactinib 0.03 | [7] 0.052 | encorafenib 0.04 | [8] 0.01 | alisertib 0.036 | [9] 0.001 | gefitinib -0.033

SLC5A6 (UniProt Q9Y289)
inactive: vemurafenib 0.038 | [1] 0.02 | barasertib -0.007 | [2] 0.029 | volasertib 0.015 | [3] -0.003 | [4] 0.167 | [5] 0.02 | saracatinib 0.036 | sotrastaurin 0.017 | alvocidib -0.111 | Tubastatin A 0.054 | [6] -0.004 | defactinib -0.03 | [7] 0.024 | encorafenib 0.015 | [8] -0.059 | alisertib -0.029 | [9] 0.039 | gefitinib 0.034

SLC39A3 (UniProt Q9BRY0)
inactive: vemurafenib -0.053 | [1] 0.025 | barasertib -0.003 | [2] -0.037 | volasertib 0.053 | [3] -0.002 | [4] -0.096 | [5] 0.062 | saracatinib 0.031 | sotrastaurin -0.03 | alvocidib -0.017 | Tubastatin A -0.068 | [6] 0.091 | defactinib -0.017 | [7] -0.048 | encorafenib -0.02 | [8] -0.039 | alisertib -0.015 | [9] -0.009 | gefitinib 0.005

SLC6A8 isoform 2 (UniProt P48029)
inactive: vemurafenib 0.018 | [1] -0.01 | barasertib 0.073 | [2] 0.163 | volasertib 0.027 | [3] -0.128 | [4] 0.09 | [5] -0.044 | saracatinib 0.116 | sotrastaurin -0.082 | alvocidib -0.009 | Tubastatin A 0.065 | [6] -0.091 | defactinib 0.057 | [7] 0.111 | encorafenib 0.107 | [8] -0.119 | alisertib 0.04 | [9] 0.048 | gefitinib -0.078

SLC25A10 isoform 2 (UniProt Q9UBX3)
inactive: vemurafenib -0.026 | [1] 0.009 | barasertib -0.001 | [2] -0.009 | volasertib -0.009 | [3] 0.002 | [4] -0.035 | [5] 0.027 | saracatinib 0.021 | sotrastaurin 0.023 | alvocidib -0.009 | Tubastatin A -0.004 | [6] 0.045 | defactinib 0.012 | [7] 0.046 | encorafenib 0.022 | [8] 0.008 | alisertib 0.004 | [9] 0.001 | gefitinib -0.056

SMAD4 (UniProt Q13485)
inactive: vemurafenib 0.019 | [1] 0.009 | barasertib -0.033 | [2] 0.017 | volasertib -0.003 | [3] -0.001 | [4] -0.049 | [5] 0.035 | saracatinib 0.039 | sotrastaurin -0.026 | alvocidib 0.007 | Tubastatin A 0.031 | [6] 0.036 | defactinib -0.007 | [7] 0.002 | encorafenib -0.001 | [8] -0.028 | alisertib 0.008 | [9] -0.012 | gefitinib -0.028

SLC30A10 (UniProt Q6XR72)
inactive: vemurafenib -0.09 | [1] 0.021 | barasertib 0.142 | [2] 0.1 | volasertib -0.01 | [3] -0.043 | [4] -0.079 | [5] -0.146 | saracatinib -0.043 | sotrastaurin 0.006 | alvocidib 0.091 | Tubastatin A 0.07 | [6] 0.151 | defactinib 0.039 | [7] 0.132 | encorafenib -0.01 | [8] -0.118 | alisertib -0.066 | [9] 0.009 | gefitinib -0.009
